From US20200157048A1, “(2E,4E)-5-PHENYL-PENTA-2,4-DIEN-1-ONE DERIVATIVE” (BIOWAY., INC, priority 2018, published 2020)
At least one structure is not confirmed: it was looked up by name or label, or the drawing left a doubt.

Legend:
Type in all cases: cell-based, Human
Settings in all cases: steatosis-induced (OA/PA) Huh-7 cells; 10 μM; 24 hours
Pparα mRNA = assay: qRT-PCR Pparα mRNA level in steatosis-induced Huh-7 cells
Protocol: (§1) In Experimental Example 5, the Huh-7 cells were plated in 6 wells at 4×10^5 cells/mL and incubated under an atmosphere containing 5% CO2 at 37° C.
(§2) One day later, the cell density approached about 80 to 90%. The medium was changed to an FBS-free RPMI1640 medium, and incubated under an atmosphere containing 5% CO2 at 37° C. for 24 hours.
(§3) Huh-7 cells of each well, excluding control cells, were pretreated with an OA/PA mixture for one hour to induce steatosis. The control cells were pretreated with 1% FA-free BSA.
(§4) Each well was treated with 10 μM of a test compound, and then the cells were incubated for 24 hours. The control cells and OA/PA-treated cells were treated with DMSO. Cells of a positive control were treated with 10 μM of resveratrol, 10 μM of piperine, and 10 μM of YU2014. The medium was entirely aspirated, and the cells were washed with PBS (phosphate buffered saline, Corning, Manassas, Va., USA) two times.
(§5) Total RNA was extracted using a RNeasy RNA isolation kit (Qiagen, Hilden, Germany).
(§6) 10 μL of β-mercaptoethanol (Sigma-Aldrich) per 1 mL of lysis buffer was added, thereby preparing an RNA lysis buffer. […]
(§7) An RNA concentration was measured at O.D. 260 nm using a nanophotometer N60 (Implen, Munich, Germany). The concentration and purity of RNA were measured at O.D. 260/280 nm and calculated as a ratio. […]
(§8) Quantitative analyses for the genes in Table 3 were performed.

Fgf21 mRNA = assay: qRT-PCR Fgf21 mRNA level in steatosis-induced Huh-7 cells
Protocol: as §1, §2, §3, §4, §5, §6, §7, §8

Fas mRNA = assay: qRT-PCR Fas mRNA level in steatosis-induced Huh-7 cells
Protocol: as §1, §2, §3, §4, §5, §6, §7, §8

Srebp1c mRNA = assay: qRT-PCR Srebp1c mRNA level in steatosis-induced Huh-7 cells
Protocol: as §1, §2, §3, §4, §5, §6, §7, §8

Sirt1 mRNA = assay: qRT-PCR Sirt1 mRNA level in steatosis-induced Huh-7 cells
Protocol: as §1, §2, §3, §4, §5, §6, §7, §8

Ck2α mRNA = assay: qRT-PCR Ck2α mRNA level in steatosis-induced Huh-7 cells
Protocol: as §1, §2, §3, §4, §5, §6, §7, §8

SMILES	Pparα mRNA level (FIG. 10) (Pparα mRNA)	Fgf21 mRNA level (FIG. 12) (Fgf21 mRNA)	Fas mRNA level (FIG. 13) (Fas mRNA)	Srebp1c mRNA level (FIG. 14) (Srebp1c mRNA)	Sirt1 mRNA level (FIG. 16) (Sirt1 mRNA)	Ck2α mRNA level (FIG. 19) (Ck2α mRNA)
O=C(/C=C/C=C/c1ccc2c(c1)OCO2)N1CCCCC1 [piperine, Piperine]	hardly increased	almost no increase	reduce	reduce	–	–
CCOC(=O)N1CCN(C(=O)/C=C/C=C/c2cccc(OC)c2)CC1 [R-22, Ethyl ((2E,4E)-5-(3-methoxyphenyl)penta-2,4-dienoyl)piperazine-1-carboxylate]	–	–	–	–	greatly increased	greatly reduced
